From patent publication US20210138090A1 (FLUOGUIDE A/S, priority 2014, published 2021)
Square brackets hold non-standard residues; d marks the D form. Peptide text beside a SMILES is read from it. * marks the point of attachment. IRDye800CW = CC1(C)C(/C=C/C2=C(Oc3ccc(S(=O)(=O)O)cc3)C(=C/C=C3/N(CCCCS(=O)(=O)O)c4ccc(S(=O)(=O)O)cc4C3(C)C)/CCC2)=[N+](CCCCCC(=O)*)c2ccc(S(=O)(=O)[O-])cc21; Cha = N[C@@H](CC1CCCCC1)C(=O)O; AEEA = NCCOCCOCC(=O)O

What was measured:
[1] = test system: orthotopic GBM (U-87 MG-luc2 cells); assay: dynamic NIR imaging of orthotopic GBM on cross sectioned brain (Fluobeam); type: in vivo, mice; settings: 6 nmol
Experimental: All experimental procedures in animals were carried out in accordance with the approval by The Animal Experiments Inspectorate, Denmark. 7-10-week-old female nude mice (strain: Rj:NMRI-Foxn1nu/nu, JANVIER LABS, France) were orthotopically xenografted with U-87 MG-luc2 cells.
The orthotopic GBM tumor model was established by inoculation of 500.000 cells in 10 μL ice cold PBS in the right hemisphere (1.5 mm lateral and 0.5 mm posterior to the bregma at 2 mm depth) using a stereotaxic frame (KOPF INSTRUMENTS, Tujunga, Calif., USA) with the automated microinjection pump UMP3 (WPI, Sarasota, Fla., USA). The cells were injected over 5 min with the syringe kept in place for further 3 min before retraction. Tumor growth was subsequently monitored on MRI with the BioSpec 7T (Bruker, Billerica, Mass., USA) with axial and coronal T2-wighted sequences. When the tumor size reached 2-17 mm^3, the animals were included in the fluorescence imaging protocol.
All image acquisition was performed with the Fluobeam system with (Fluosoft version: 2.2.1) (Fluoptics, Grenoble, France). To characterize the in vivo biodistribution and tumor imaging properties, IRDye800-AE344 was administered through tail vein injection into all the GBM bearing mice (n=35) at four different doses: 1 nmol, 3 nmol, 6 nmol, and 12 nmol. Two mice were sacrificed for each time point and the brain was removed and cross sectioned through the tumor for imaging. […] Accordingly, image acquisition was performed at following time points after injection: • 1 nmol: 0.5 h, 1 h, and 2 h • 3 nmol: 1 h, 2 h, 3 h, and 5 h • 6 nmol: 1 h, 3 h, 6 h, and 12 h • 12 nmol: 1 h, 3 h, 5 h, 10 h, 15 h, and 24 h
Images were analyzed and processed in ImageJ 1.52a, NIH, USA. Signal measurements were performed on the raw images generated by the Fluoptics system. Tumor signal was measured as a mean fluorescence intensity of the whole tumor and background signal was measured as the mean of a representative area with no tumor on the contralateral hemisphere. […]

[2] = general procedure: Fmoc solid-phase peptide synthesis; Fmoc Ser(t-Bu) TentaGel S PHB 0.25 mmol/g; HBTU/HOAt/DIEA; HATU/HOAt/DIEA for the dye; settings: whole synthesis
[3] = UHPLC-MS, two analytical methods (C4 and C18 columns), scale of the general procedure 0.1 mmol

Row | Compound | background MFI ([1]; 1 h) | background MFI ([1]; 3 h) | decrease in background MFI ([1]; from 1 h to 3 h) | crude LC-MS purity [2, 3] | final LC-MS purity [2, 3] | isolated mass ([2]; scale 0.1 mmol)
1 | CC(C)C[C@H](NC(=O)[C@H](Cc1ccc(O)cc1)NC(=O)[C@@H](CCCNC(=N)N)NC(=O)[C@@H](CO)NC(=O)[C@H](Cc1ccccc1)NC(=O)[C@H](CC1CCCCC1)NC(=O)[C@H](CC(=O)O)NC(=O)COCCOCCNC(=O)COCCOCCNC(=O)[C@H](CCC(=O)O)NC(=O)[C@H](CCC(=O)O)NC(=O)CCCCC[N+]1=C(/C=C/C2=C(Oc3ccc(S(=O)(=O)O)cc3)C(=C/C=C3/N(CCCCS(=O)(=O)O)c4ccc(S(=O)(=O)O)cc4C3(C)C)/CCC2)C(C)(C)c2cc(S(=O)(=O)[O-])ccc21)C(=O)N[C@@H](Cc1c[nH]c2ccccc12)C(=O)N[C@@H](CO)C(=O)O [IRDye800CW-AE344, IRDye800-Glu-Glu-O2Oc-O2Oc-Asp-Cha-Phe-D-ser-D-arg-Tyr-Leu-Trp-Ser-OH] (IRDye800CW-EE[AEEA][AEEA]D[Cha]F[dS][dR]YLWS-OH) | 24 a.u. | 11 a.u. | 54% |  |  | 
2 | IRDye800-Glu-Glu-O2Oc-O2Oc-Asp-Cha-Phe-D-ser-D-arg-Tyr-Leu-Trp-Ser-OH |  |  |  | above 80% | 98% | 2 mg
